In publication PMC4072510:
No constants are given. Whether binding was seen depends on the method and setting. In cells and extracts the contact can be indirect. Some entries that bind do so weakly or less than the wild type. Where a sequence is shown, tags or fusion partners need not be part of it. Blank lines part the entries; values can stand above or below the molecule they belong to.

The chains behind the UniProt entries cited, without tags or fusion partners.
UniProt Q93560: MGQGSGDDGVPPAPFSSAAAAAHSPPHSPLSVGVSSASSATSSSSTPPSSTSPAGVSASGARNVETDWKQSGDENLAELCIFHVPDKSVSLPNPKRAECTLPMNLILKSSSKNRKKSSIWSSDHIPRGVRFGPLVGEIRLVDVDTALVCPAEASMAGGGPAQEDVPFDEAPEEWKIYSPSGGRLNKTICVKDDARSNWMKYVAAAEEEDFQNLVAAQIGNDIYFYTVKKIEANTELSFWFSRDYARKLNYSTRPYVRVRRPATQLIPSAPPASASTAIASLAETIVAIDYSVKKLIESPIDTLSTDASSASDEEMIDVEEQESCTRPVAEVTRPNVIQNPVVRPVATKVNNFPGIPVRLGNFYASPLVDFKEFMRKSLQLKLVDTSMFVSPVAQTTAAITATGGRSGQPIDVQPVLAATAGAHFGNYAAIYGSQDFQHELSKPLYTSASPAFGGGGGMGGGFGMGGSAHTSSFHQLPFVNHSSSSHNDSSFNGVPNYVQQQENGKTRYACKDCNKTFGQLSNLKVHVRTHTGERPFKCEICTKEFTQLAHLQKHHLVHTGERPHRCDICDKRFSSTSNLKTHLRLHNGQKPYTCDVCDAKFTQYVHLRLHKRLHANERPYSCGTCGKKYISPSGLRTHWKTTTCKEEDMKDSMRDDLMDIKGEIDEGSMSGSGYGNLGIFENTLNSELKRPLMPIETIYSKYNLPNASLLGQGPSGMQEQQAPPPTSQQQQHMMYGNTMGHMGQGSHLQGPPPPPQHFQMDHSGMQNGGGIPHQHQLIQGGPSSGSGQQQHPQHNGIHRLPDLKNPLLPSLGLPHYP
UniProt O75626: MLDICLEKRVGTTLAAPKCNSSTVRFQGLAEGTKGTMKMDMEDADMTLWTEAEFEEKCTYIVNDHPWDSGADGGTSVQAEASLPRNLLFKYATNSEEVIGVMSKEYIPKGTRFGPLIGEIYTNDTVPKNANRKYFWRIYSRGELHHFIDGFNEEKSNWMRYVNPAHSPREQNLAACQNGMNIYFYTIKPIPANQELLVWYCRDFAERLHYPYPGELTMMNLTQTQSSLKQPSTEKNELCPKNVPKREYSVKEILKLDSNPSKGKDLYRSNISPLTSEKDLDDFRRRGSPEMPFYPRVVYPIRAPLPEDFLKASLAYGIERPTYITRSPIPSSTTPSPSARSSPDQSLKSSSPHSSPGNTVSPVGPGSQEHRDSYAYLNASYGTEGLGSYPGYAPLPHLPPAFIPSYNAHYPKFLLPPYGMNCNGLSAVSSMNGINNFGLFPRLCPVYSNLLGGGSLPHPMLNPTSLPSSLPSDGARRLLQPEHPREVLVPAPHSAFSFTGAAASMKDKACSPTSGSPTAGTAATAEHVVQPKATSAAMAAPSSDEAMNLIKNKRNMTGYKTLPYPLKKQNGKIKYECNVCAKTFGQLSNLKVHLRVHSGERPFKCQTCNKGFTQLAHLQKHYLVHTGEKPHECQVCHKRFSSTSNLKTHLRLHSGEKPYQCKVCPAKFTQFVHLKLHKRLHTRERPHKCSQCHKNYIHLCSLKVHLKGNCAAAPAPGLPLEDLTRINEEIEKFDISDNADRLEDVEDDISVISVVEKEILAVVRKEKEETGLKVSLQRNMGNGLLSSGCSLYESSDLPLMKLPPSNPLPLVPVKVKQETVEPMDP

Experiments:
Assay in all cases: co-IP; HEK293T cells transfected with the indicated plasmids, MG132 (20 µM) 2 h before harvest; 1% NP-40 lysis buffer with protease inhibitor; anti-HA or anti-Myc agarose beads overnight at 4°C; Western blotting with anti-HA, anti-Myc or anti-CUL1
[1] = molecular target: T1, Myc-tagged DRE-1 (C. elegans) (UniProt Q94251)
T1 sequence: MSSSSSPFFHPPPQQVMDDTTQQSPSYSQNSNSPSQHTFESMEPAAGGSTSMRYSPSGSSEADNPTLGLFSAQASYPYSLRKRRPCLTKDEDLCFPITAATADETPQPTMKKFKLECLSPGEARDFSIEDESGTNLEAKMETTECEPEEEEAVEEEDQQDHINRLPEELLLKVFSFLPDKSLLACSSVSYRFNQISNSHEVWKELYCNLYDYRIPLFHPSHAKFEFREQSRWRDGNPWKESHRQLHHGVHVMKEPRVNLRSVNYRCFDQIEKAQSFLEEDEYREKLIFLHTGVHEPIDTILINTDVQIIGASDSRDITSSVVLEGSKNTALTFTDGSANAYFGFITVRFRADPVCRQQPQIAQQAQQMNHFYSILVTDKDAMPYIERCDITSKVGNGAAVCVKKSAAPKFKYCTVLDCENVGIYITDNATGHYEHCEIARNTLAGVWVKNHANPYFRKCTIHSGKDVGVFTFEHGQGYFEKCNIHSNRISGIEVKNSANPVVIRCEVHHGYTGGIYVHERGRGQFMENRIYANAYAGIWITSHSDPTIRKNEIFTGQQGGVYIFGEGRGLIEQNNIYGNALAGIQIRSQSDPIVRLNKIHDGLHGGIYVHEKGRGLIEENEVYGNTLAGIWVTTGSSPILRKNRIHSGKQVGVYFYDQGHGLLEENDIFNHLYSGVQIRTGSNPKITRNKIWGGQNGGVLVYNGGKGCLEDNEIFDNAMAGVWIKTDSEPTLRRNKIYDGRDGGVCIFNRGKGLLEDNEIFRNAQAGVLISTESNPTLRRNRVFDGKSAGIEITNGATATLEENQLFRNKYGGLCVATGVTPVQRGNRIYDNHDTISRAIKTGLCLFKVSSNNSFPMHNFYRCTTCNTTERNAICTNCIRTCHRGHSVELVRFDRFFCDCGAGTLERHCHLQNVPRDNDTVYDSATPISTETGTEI

[2] = molecular target: HA-tagged BLMP-1 (C. elegans) (UniProt Q93560)
[3] = molecular target: HA-tagged PRDI-BF1 (human) (UniProt O75626)

- binding [1]: binds
Molecule: HA-tagged BLMP-1 (from UniProt Q93560 1-817)

- binding [2]: binds
B1: Myc-tagged DRE-1 (protein, UniProt Q94251 1-936)
chain: T1 sequence

- binding [3]: binds
B2: Myc-tagged FBXO11 (protein, UniProt Q86XK2 1-927)
chain: MNSVRAANRRPRRVSRPRPVQQQQQQPPQQPPPQPPQQQPPQQQPPPPPQQQQQQQPPPPPPPPPPLPQERNNVGERDDDVPADMVAEESGPGAQNSPYQLRRKTLLPKRTACPTKNSMEGASTSTTENFGHRAKRARVSGKSQDLSAAPAEQYLQEKLPDEVVLKIFSYLLEQDLCRAACVCKRFSELANDPILWKRLYMEVFEYTRPMMHPEPGKFYQINPEEYEHPNPWKESFQQLYKGAHVKPGFAEHFYSNPARYKGRENMLYYDTIEDALGGVQEAHFDGLIFVHSGIYTDEWIYIESPITMIGAAPGKVADKVIIENTRDSTFVFMEGSEDAYVGYMTIRFNPDDKSAQHHNAHHCLEITVNCSPIIDHCIIRSTCTVGSAVCVSGQGACPTIKHCNISDCENVGLYITDHAQGIYEDNEISNNALAGIWVKNHGNPIIRRNHIHHGRDVGVFTFDHGMGYFESCNIHRNRIAGFEVKAYANPTVVRCEIHHGQTGGIYVHEKGRGQFIENKIYANNFAGVWITSNSDPTIRGNSIFNGNQGGVYIFGDGRGLIEGNDIYGNALAGIQIRTNSCPIVRHNKIHDGQHGGIYVHEKGQGVIEENEVYSNTLAGVWVTTGSTPVLRRNRIHSGKQVGVYFYDNGHGVLEDNDIYNHMYSGVQIRTGSNPKIRRNKIWGGQNGGILVYNSGLGCIEDNEIFDNAMAGVWIKTDSNPTLRRNKIHDGRDGGICIFNGGRGLLEENDIFRNAQAGVLISTNSHPILRKNRIFDGFAAGIEITNHATATLEGNQIFNNRFGGLFLASGVNVTMKDNKIMNNQDAIEKAVSRGQCLYKISSYTSYPMHDFYRCHTCNTTDRNAICVNCIKKCHQGHDVEFIRHDRFFCDCGAGTLSNPCTLAGEPTHDTDTLYDSAPPIESNTLQHN
